Laboratory results reported in patent US20080274104A1, “Targeting a Secreted Pro-Apoptotic Factor for Cancer Therapeutics” (priority 2005, published 2008).
For at least one compound, name, drawing or mass did not settle the structure.

Test system: NGAL expression in SKBr3 cell line
Test: NGAL expression in breast cancer cell line
Assay type: cell-based, human

O=c1cc(N2CCOCC2)oc2c(-c3ccccc3)cccc12 [LY294002]
NGAL expression: inhibited
